{"source": "paper PMC4909299", "assay_in_all_cases": "two-hybrid; Dbl2 fused to the GAL4 activation domain (prey), Rad51, Fbh1 or Fml1 fused to the GAL4 DNA-binding domain (bait); S. cerevisiae PJ69-4a; growth on SD plates lacking histidine or adenine", "key": {"Fbh1 (S. pombe)": {"molecular_target": "T1, Fbh1 (S. pombe) (UniProt Q9USU3)", "T1 sequence": "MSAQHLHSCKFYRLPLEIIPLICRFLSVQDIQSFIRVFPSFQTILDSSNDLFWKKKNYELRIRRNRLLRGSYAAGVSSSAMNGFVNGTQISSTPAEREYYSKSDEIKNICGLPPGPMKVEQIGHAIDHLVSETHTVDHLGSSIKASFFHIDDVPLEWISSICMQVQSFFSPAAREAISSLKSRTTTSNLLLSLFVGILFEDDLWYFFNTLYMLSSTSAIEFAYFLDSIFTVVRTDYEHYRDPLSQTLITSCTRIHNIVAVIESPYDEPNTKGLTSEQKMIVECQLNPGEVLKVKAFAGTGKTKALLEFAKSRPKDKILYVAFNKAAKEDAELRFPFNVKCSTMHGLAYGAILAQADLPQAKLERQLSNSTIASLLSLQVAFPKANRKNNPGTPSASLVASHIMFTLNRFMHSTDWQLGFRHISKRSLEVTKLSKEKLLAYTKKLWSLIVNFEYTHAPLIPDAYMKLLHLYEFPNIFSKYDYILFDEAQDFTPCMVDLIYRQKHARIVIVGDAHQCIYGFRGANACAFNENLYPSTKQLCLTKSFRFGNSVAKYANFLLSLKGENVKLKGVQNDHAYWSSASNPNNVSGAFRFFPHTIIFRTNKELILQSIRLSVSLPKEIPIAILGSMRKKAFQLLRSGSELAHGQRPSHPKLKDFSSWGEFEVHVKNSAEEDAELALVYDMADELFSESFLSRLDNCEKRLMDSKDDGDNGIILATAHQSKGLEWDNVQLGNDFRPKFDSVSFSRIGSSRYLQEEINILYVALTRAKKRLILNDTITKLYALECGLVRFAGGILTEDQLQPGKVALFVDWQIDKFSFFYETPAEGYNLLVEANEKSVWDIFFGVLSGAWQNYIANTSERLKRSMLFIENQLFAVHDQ"}, "Fml1 (S. pombe)": {"molecular_target": "T2, Fml1 (S. pombe) (UniProt Q9UT23)", "T2 sequence": "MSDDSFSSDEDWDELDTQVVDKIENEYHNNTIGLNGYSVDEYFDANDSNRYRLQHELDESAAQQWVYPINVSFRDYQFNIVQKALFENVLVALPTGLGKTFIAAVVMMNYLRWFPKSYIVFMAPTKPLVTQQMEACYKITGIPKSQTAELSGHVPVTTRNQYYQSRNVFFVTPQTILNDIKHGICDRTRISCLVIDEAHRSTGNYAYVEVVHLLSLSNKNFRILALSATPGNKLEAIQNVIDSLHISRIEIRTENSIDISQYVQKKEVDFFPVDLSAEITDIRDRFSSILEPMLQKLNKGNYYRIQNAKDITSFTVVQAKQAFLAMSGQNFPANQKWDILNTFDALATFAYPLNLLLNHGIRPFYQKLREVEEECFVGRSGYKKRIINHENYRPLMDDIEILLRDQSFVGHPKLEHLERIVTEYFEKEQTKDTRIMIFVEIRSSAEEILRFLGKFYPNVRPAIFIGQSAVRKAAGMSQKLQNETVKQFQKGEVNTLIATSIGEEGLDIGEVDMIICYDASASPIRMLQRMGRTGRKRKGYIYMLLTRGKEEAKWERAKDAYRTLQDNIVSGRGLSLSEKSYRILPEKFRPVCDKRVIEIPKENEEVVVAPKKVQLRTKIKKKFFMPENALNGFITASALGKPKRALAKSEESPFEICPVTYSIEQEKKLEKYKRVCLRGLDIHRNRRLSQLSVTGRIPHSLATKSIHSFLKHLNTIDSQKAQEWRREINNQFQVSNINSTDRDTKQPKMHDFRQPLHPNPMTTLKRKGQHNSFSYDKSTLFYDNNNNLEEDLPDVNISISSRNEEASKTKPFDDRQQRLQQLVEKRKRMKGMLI"}, "Rad51 (S. pombe)": {"molecular_target": "T3, Rad51 (S. pombe) (UniProt P36601)", "T3 sequence": "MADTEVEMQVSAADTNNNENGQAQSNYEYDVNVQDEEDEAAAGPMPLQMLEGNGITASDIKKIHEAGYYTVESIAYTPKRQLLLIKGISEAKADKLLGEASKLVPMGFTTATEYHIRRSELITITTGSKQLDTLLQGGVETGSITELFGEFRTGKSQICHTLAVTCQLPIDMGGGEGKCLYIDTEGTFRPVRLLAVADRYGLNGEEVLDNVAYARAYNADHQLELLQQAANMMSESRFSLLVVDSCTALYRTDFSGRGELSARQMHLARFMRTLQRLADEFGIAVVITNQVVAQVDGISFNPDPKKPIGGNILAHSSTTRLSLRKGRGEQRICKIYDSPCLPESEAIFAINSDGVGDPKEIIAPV"}}, "note": "No constants are given. Whether binding was seen depends on the method and setting. For part of these data: Binding calls can cover weak binding; strength is not graded here."}
{"substance": "Dbl2 (S. pombe)", "values": [{"measurement": "binding", "setting": "Fbh1 (S. pombe)", "value": "no binding"}, {"measurement": "binding", "setting": "Fml1 (S. pombe)", "value": "binds weakly"}, {"measurement": "binding", "setting": "Rad51 (S. pombe)", "value": "binds"}]}
